Experimental data from US12503439B2, “Heteroaryl compounds for the treatment of pain” (VERTEX PHARMACEUTICALS INCORPORATED, priority 2022, dated 2025).
Some entries share one result that the patent states for a list of compounds.

Amino acid sequences for entries named in this document (tags omitted). Residues count along the entry.
UniProt Q9Y5Y9, 126-1722 limits assumed: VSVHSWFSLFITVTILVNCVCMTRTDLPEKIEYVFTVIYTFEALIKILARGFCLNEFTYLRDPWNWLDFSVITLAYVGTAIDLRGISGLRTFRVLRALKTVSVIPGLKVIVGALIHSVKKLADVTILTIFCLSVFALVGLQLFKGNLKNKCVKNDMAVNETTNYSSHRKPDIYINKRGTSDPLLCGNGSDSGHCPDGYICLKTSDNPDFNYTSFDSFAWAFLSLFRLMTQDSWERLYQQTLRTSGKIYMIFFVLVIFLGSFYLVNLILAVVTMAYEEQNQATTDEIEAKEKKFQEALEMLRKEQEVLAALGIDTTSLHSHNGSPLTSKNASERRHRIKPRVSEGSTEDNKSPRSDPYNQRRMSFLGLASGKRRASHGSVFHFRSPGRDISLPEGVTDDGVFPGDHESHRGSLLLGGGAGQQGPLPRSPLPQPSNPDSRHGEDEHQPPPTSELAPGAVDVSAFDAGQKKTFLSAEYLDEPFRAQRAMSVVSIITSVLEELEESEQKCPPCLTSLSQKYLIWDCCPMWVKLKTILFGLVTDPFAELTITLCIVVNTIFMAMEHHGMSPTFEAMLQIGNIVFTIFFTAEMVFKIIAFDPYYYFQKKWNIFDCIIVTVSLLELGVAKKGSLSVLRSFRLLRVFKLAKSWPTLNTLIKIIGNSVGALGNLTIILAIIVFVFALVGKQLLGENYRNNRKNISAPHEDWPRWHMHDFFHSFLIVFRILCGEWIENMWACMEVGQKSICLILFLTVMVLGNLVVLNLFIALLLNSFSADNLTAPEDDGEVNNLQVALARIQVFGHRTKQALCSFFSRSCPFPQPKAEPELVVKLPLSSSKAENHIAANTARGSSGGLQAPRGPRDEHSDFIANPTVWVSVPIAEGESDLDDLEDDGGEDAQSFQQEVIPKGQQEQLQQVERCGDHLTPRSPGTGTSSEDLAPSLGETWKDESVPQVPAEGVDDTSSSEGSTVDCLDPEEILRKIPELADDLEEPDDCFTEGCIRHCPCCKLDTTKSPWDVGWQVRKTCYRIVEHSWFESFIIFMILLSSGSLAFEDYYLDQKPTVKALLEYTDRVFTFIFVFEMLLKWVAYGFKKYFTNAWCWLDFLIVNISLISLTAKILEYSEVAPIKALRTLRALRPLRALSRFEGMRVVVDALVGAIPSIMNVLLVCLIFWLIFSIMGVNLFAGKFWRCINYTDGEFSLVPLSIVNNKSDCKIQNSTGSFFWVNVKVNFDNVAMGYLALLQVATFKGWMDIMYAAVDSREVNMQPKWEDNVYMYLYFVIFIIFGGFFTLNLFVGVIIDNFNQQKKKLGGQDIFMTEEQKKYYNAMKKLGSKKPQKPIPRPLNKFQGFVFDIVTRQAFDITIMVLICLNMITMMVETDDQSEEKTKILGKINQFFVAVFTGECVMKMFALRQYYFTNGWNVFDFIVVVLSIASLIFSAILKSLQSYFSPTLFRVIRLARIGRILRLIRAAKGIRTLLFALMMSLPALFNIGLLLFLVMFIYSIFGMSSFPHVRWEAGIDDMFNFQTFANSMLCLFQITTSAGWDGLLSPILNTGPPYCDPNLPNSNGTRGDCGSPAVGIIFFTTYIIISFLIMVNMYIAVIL

Target: truncated form of human NaV 1.8 with full channel activity (expressed in HEK cells) (Homo sapiens, UniProt Q9Y5Y9)
Test: E-VIPR assay detecting and measuring NaV inhibition properties (electrical stimulation, membrane potential FRET dyes)
Type: cell-based
Settings: HEK cells expressing truncated human NaV 1.8, KIR2.1 BacMam; 11-point dose response; 30 min compound incubation; stimulation 10 Hz for 10 s; read-out: measured IC50 value in the E-VIPR Assay

## CC1(C)CCCc2c1nn(C1CCC(F)(F)CC1)c2-c1cc(=O)c2c(C(N)=O)nccc2[nH]1 [Compound 364, 2-[2-(4,4-difluorocyclohexyl)-7,7-dimethyl-5,6-dihydro-4H-indazol-3-yl]-4-oxo-1H-1,6-naphthyridine-5-carboxamide]
  IC50: < 500 nM

## Cc1nc(-c2nccc3[nH]c(-c4cnc(C5CC(F)(F)C5)cc4C4CCC(C(F)(F)F)CC4)cc(=O)c23)n(C)n1 (stereo not shown) [Compound 235, 2-[6-(3,3-difluorocyclobutyl)-4-[4-(trifluoromethyl)cyclohexyl]-3-pyridyl]-5-(2,5-dimethyl-1,2,4-triazol-3-yl)-1H-1,6-naphthyridin-4-one]
  IC50: < 500 nM

## Cc1c(Oc2nc3ccccc3cc2-c2cc(=O)c3c(F)cccc3[nH]2)ccc(F)c1F [Compound 15, 2-[2-(3,4-difluoro-2-methyl-phenoxy)-3-quinolyl]-5-fluoro-1H-quinolin-4-one]
  IC50: < 500 nM

## Cc1c(C2(C)CC(F)(F)C2)nn(C2CCC(F)(F)CC2)c1-c1cc(=O)c2c(C(N)=O)nccc2[nH]1 [Compound 362, 2-[2-(4,4-difluorocyclohexyl)-5-(3,3-difluoro-1-methyl-cyclobutyl)-4-methyl-pyrazol-3-yl]-4-oxo-1H-1,6-naphthyridine-5-carboxamide]
  IC50: < 500 nM

## Cc1c(C(C)(C)C(F)(F)F)nn(C2CCC(F)(F)CC2)c1-c1cc(=O)c2c(C(N)=O)nccc2[nH]1 [Compound 370, 2-[2-(4,4-difluorocyclohexyl)-4-methyl-5-(2,2,2-trifluoro-1,1-dimethyl-ethyl)pyrazol-3-yl]-4-oxo-1H-1,6-naphthyridine-5-carboxamide]
  IC50: < 500 nM

## COc1cc(F)ccc1Oc1cc(C(C)(C)C)cc(C)c1-c1cc(=O)c2c(C(O)CO)nccc2[nH]1 (stereo not shown) [Compound 337, 2-[4-tert-butyl-2-(4-fluoro-2-methoxy-phenoxy)-6-methyl-phenyl]-5-(1,2-dihydroxyethyl)-1H-1,6-naphthyridin-4-one]
  IC50: < 500 nM

## Cc1c(C2CC(F)(F)C2)nn(C2CCC(F)(F)CC2)c1-c1cc(=O)c2c(C(N)=O)nccc2[nH]1 [Compound 355, 2-[5-(3,3-difluorocyclobutyl)-2-(4,4-difluorocyclohexyl)-4-methyl-pyrazol-3-yl]-4-oxo-1H-1,6-naphthyridine-5-carboxamide]
  IC50: < 500 nM

## Cc1nc(-c2nccc3[nH]c(-c4c(Oc5ccc(F)c(F)c5C)ncc(C(F)(F)F)c4C)cc(=O)c23)n(C)n1 [Compound 223, 2-[2-(3,4-difluoro-2-methyl-phenoxy)-4-methyl-5-(trifluoromethyl)-3-pyridyl]-5-(2,5-dimethyl-1,2,4-triazol-3-yl)-1H-1,6-naphthyridin-4-one]
  IC50: < 500 nM

## COCn1nnnc1-c1nccc2[nH]c(-c3c(Oc4ccc(F)c(F)c4C)ncc(C(F)(F)F)c3C)cc(=O)c12 [Compound 228, 2-[2-(3,4-difluoro-2-methyl-phenoxy)-4-methyl-5-(trifluoromethyl)-3-pyridyl]-5-[1-(methoxymethyl)tetrazol-5-yl]-1H-1,6-naphthyridin-4-one]
  IC50: < 500 nM

## NC(=O)c1nccc2[nH]c(-c3cc4ccccc4nc3N3C[C@H]4CCC[C@H]4C3)cc(=O)c12 [Compound 293, 2-[2-[(3aR,6aS)-3,3a,4,5,6,6a-hexahydro-1H-cyclopenta[c]pyrrol-2-yl]-3-quinolyl]-4-oxo-1H-1,6-naphthyridine-5-carboxamide]
  IC50: < 500 nM

## Cc1c(C(C)(C)C)nn(C2CCC(F)(F)CC2)c1-c1cc(=O)c2c(-c3nccn3C)nccc2[nH]1 [Compound 230, 2-[5-tert-butyl-2-(4,4-difluorocyclohexyl)-4-methyl-pyrazol-3-yl]-5-(1-methylimidazol-2-yl)-1H-1,6-naphthyridin-4-one]
  IC50: < 500 nM

## CCc1c(-c2c(C)cc(C(C)(C)C)cc2Oc2ccc(F)cc2OC)[nH]c2ccccc2c1=O [Compound 335, 2-[4-tert-butyl-2-(4-fluoro-2-methoxy-phenoxy)-6-methyl-phenyl]-3-ethyl-1H-quinolin-4-one]
  IC50: < 500 nM

## Cc1c(Oc2ncc(C(F)(F)F)c(C)c2-c2cc(=O)c3c(N[C@H]4CCN(C)C4)nccc3[nH]2)ccc(F)c1F [Compound 181, 2-[2-(3,4-difluoro-2-methyl-phenoxy)-4-methyl-5-(trifluoromethyl)-3-pyridyl]-5-[[(3S)-1-methylpyrrolidin-3-yl]amino]-1H-1,6-naphthyridin-4-one]
  IC50: < 500 nM

## Cc1c(Oc2ncc(C(F)(F)F)c(C)c2-c2cc(=O)c3c(C(=O)NC[C@@H](O)CO)nccc3[nH]2)ccc(F)c1F [Compound 257, 2-[2-(3,4-difluoro-2-methyl-phenoxy)-4-methyl-5-(trifluoromethyl)-3-pyridyl]-N-[(2R)-2,3-dihydroxypropyl]-4-oxo-1H-1,6-naphthyridine-5-carboxamide]
  IC50: < 500 nM

## COc1ncccc1Oc1ncc(C(F)(F)F)c(C)c1-c1cc(=O)c2c(C(N)=O)nccc2[nH]1 [Compound 144, 2-[2-[(2-methoxy-3-pyridyl)oxy]-4-methyl-5-(trifluoromethyl)-3-pyridyl]-4-oxo-1H-1,6-naphthyridine-5-carboxamide]
  IC50: < 500 nM

## COC(=O)c1c(-c2cc3ccccc3nc2C2CCC(F)(F)CC2)[nH]c2ccnc(C(N)=O)c2c1=O [Compound 323, Methyl 5-carbamoyl-2-[2-(4,4-difluorocyclohexyl)-3-quinolyl]-4-oxo-1H-1,6-naphthyridine-3-carboxylate]
  IC50: < 500 nM

## COc1c(Oc2cc(C(F)(F)F)c(F)cc2-c2cc(=O)c3c(NC(C)=O)nccc3[nH]2)ccc(F)c1F [Compound 202, N-[2-[2-(3,4-difluoro-2-methoxy-phenoxy)-5-fluoro-4-(trifluoromethyl)phenyl]-4-oxo-1H-1,6-naphthyridin-5-yl]acetamide]
  IC50: < 500 nM

## Cc1c(-c2cc(=O)c3c(C#N)nccc3[nH]2)c(N2CCC3(CC2)CC3)nc2ccccc12 [Compound 99, 2-[2-(6-azaspiro[2.5]octan-6-yl)-4-methyl-3-quinolyl]-4-oxo-1H-1,6-naphthyridine-5-carbonitrile]
  IC50: < 500 nM

## COc1c(Oc2cnc(C(F)(F)F)cc2-c2cc(=O)c3c(C(N)=O)nccc3[nH]2)ccc(F)c1F [Compound 47, 2-[5-(3,4-difluoro-2-methoxy-phenoxy)-2-(trifluoromethyl)-4-pyridyl]-4-oxo-1H-1,6-naphthyridine-5-carboxamide]
  IC50: < 500 nM

## Cc1c(Oc2ncc(C(F)(F)F)c(C)c2-c2cc(=O)c3c(C(=O)Nc4ncccc4O)nccc3[nH]2)ccc(F)c1F [Compound 261, 2-[2-(3,4-difluoro-2-methyl-phenoxy)-4-methyl-5-(trifluoromethyl)-3-pyridyl]-N-(3-hydroxy-2-pyridyl)-4-oxo-1H-1,6-naphthyridine-5-carboxamide]
  IC50: < 500 nM

## Cc1c(Oc2ncc(C(F)(F)F)c(C)c2-c2cc(=O)c3c(-n4nccc4CN)nccc3[nH]2)ccc(F)c1F [Compound 189, 5-[5-(aminomethyl)pyrazol-1-yl]-2-[2-(3,4-difluoro-2-methyl-phenoxy)-4-methyl-5-(trifluoromethyl)-3-pyridyl]-1H-1,6-naphthyridin-4-one]
  IC50: < 500 nM

## Cc1nc(-c2nccc3[nH]c(-c4c(C)c(C(C)(C)C)nn4C4CCC(F)(F)CC4)cc(=O)c23)n(C)n1 [Compound 231, 2-[5-tert-butyl-2-(4,4-difluorocyclohexyl)-4-methyl-pyrazol-3-yl]-5-(2,5-dimethyl-1,2,4-triazol-3-yl)-1H-1,6-naphthyridin-4-one]
  IC50: < 500 nM
